Laboratory results published in the supplement of paper PMC6445147.
This is a noisy data set.

B1: human tRNA-Pro; a variant is named by its letters at N, in order (parent)
chain: GGCTCGTTGGTCTAGNGGTATGATTCTCGCTTAGGGTGCGAGAGGTCCCGGGTTCNNATCCCGGACGAGCCC

Variants of: B1
Test: tRNA 3' processing efficiency (processed reads / all reads, maximum-likelihood estimate) (fraction); higher = more efficient 3' processing
Conditions: HEK293T; construct: no Pol-II promoter ((-)CMV library)

Variant	tRNA 3' processing efficiency
TTA T19C A58T T59G	0.2
GGA A14T T19G T59G	0.2
CAC A20G T59G	0.25
TGA C55G A58T T59G	0.25
CAA A33G C55T	0.2
GAG G15A G17T A58T	0.4
TAA G9A A33G A58T	0.2
CAA G50T C55T	0.08
GAA A14G G15C T19G A58C T59C	0.62
CTA C3T A14G A20G	0.25
AAT T19A A20C A58T	0.33
GAT G15T G18T A20C	0.25
TAT G15A G17T A20G	0.17
CAA T19A A20G T53G	0.62
GAC T8C A14T T19G A33G	0.33
GGA T8C A20T A58G	0.17
GAA T8G T19C T59C	0.5
GTA G15A T59A	0.56
GAA A14G G17T T53A A58T T59A	0.17
TTA G17A A20G T53A	0.4
GTA T8C T19A A58G	0.13

Variant	tRNA 3' processing efficiency
GAA T19A A20T A58G T59A	0.33
TTA A20C A58G	0.2
GTT A14C G15C T59A	0.33
AGC T59G	0.17
GAG T8A G15C A58T	0.2
GGA A23T C55G	0.25
TAG T8C G15A T59C	0.2
CAT T8G A14C T59A	0.5
AAA G17T G18C A58T T59G	0.38
TTA G15A A58C	0.25
GAA A14G G15T G50A	0.29
GGG A14G T19G	0.2
AAA A33G C55T	0.2
CAT T19C T59G	0.33
ATA T8G A58G	0.44
CAT A20C T59A	0.75
GAA A14T T19G C55T A58G	0.23
GTA T8A T19A A58G	0.11
GAA T8C A33G	0.4
TAA A14G A20G T53C A58G	0.57
AGC A20C	0.5

Three successive records already listed, for reference:
Variant	tRNA 3' processing efficiency
CAT T19C T59G	0.33
ATA T8G A58G	0.44
CAT A20C T59A	0.75

Additional entries:

Variant	tRNA 3' processing efficiency
GTA G9T T19G A58T T59C	0.25
GGG T8C A14T A20T	0.4
GCA A14T T19G A58G T59G	0.25
GAA T19A A20T G51A A58C	0.1
CAT G15A A58G	0.29
TTA A20T T59A	0.67
GAA G9A A20C T53C T59C	0.25
GCA A14C A58G	0.33
GAT A14G T19A A20T A23T	0.25
CAT A20T A58G	0.15
GAG G42A	0.4
ATA G15C T19G	0.25
AAA T8C T59A	0.2
GAT A14G G17T T19C	0.25
TTA A14G A20G T59C	0.62
TAG G9A A14T A20T	0.57
TAG A14T A20T	0.25
TTG T59C	0.4
GAA G15A A33G A58T	0.25
TAA G15A A33G A58T	0.25
GGC G9T A20G A58T	0.57

Variant	tRNA 3' processing efficiency
GGT G9A A14C G17C	0.62
GAG G15C T19C T53A	0.43
GGA T19G C55G A58T	0.33
GGG T8G G15C A20T	0.4
GAC G18A T19C A20T	0.25
CTG G18C T59G	0.25
GAT A14G A20T G51A	0.33
CAT T19A A20T A58G	0.17
TAA A14T A20G A58T	0.4
CAT A58T T59A	0.55
GGA T53C C55T A58C	0.5
TAA G9A C55T A58G T59A	0.2
GAG G15C T19A A20T	0.13
GAA A14T T19A A58T T59C	0.2
TTT T19A A20G	0.14
GGC A20G G40A	0.43
TGA A20T C55T A58T	0.4
GGA A14T G15T C55T	0.17
GAC A14C T19A A20C A58G T59C	0.25
GTT G15A G17C A20C	0.33

Variants of: B1
Test: tRNA 5' processing efficiency (processed reads / all reads, maximum-likelihood estimate) (fraction); higher = more efficient 5' processing
Conditions: HEK293T; construct: CMV Pol-II promoter ((+)CMV library, decapped)

Variant	tRNA 5' processing efficiency
AAT T19A A20C A58T	0.2
